# Tested on: BJ-TERT/LT/ST/RAS^V12 tumorigenic cells
# Assay: Calcein AM viability assay, dilution-series retest
# Format: cell-based, human
# Conditions: from selectivity ratio for each subsequent pair of cell lines in a series
# Description: Described here is work carried out to identify compounds with increased potency or activity in the presence of hTERT, LT, ST, E6, E7 or RAS^V12. […] The primary screen tested (in quadruplicate) the effect of treating tumorigenic BJ-TERT/LT/ST/RAS^V12 engineered tumorigenic cells with each compound for 48 hours at a concentration of 4 μg/mL, corresponding to 10 μM for a compound with a molecular weight of 400, which is the approximate median molecular weight of the libraries. Cell viability was measured using the dye calcein acetoxymethyl ester (calcein AM) (Wang et al., 1993, Hum. Immunol. 3 7, 264-270), which is a non-fluorescent compound that freely diffuses into cells. In live cells, calcein AM is cleaved by intracellular esterases, forming the anionic fluorescent derivative calcein, which cannot diffuse out of live cells. […] The IC50 value (concentration required to inhibit 50% of the calcein AM signal) was calculated for each compound in each cell line (Table 1).
# Calcein acetoxylmethyl ester (AM) is a cell membrane-permeable, non-fluorescent compound that is cleaved by intracellular esterases to form the anionic, cell-impermeable, fluorescent compound calcein. Viable cells are stained by calcein because of the presence of intracellular esterases and because the intact plasma membrane prevents fluorescent calcein from leaking out of cells (Wang et al., 1993, supra). Cells were seeded in 384-well plates using a Zymark Sciclone ALH, treated with each compound in triplicate at 4 μg/mL in the primary screen for two days, washed with phosphate-buffered saline on a Packard Minitrak with a 384-well washer and incubated for four hours with 0.7 μg/mL calcein (Molecular Probes). Total fluorescence intensity in each well was recorded on a Packard Fusion platereader, and converted to a percent inhibition of signal by subtracting the instrument background and dividing by the average signal obtained when cells were not treated with any compound.
# Replica daughter plates were prepared with a Zymark Sciclone ALH and integrated Twister II by diluting stock plates 50 fold in medium lacking serum and pen/strep to obtain a compound concentration in daughter plates of 80 μg/ml with 2% DMSO. Assay plates were prepared by seeding cells in black, clear bottom 384-well plates in columns 1-23 (6000 cells/well in 57 μl) using a syringe bulk dispenser. Columns 3-22 were treated with compounds from a daughter library plate by transferring 3 μl from the daughter library plate using 384-position fixed cannula array. The final compound concentrations in assay plates were thus 4 μg/ml. The assay plates were incubated for 48 hours at 37° C. in humidified incubator containing 5% CO2. Plate processing for the calcein AM viability assay was performed using an integrated Minitrak/Sidetrak robotic system from Packard Bioscience (Perkin Elmer). Assay plates were washed with phosphate buffered saline, and 20 μl of calcein AM (0.7 μg/ml) per well was added. Plates were incubated at room temperature for 4 hours. Fluorescence intensity was determined using a Fusion platereader with filters centered on an excitation of 485 nm and an emission of 535 nm.
# Compounds to be retested were purchased from manufacturers. Stocks were prepared in DMSO at a concentration of 1 mg/ml in 384-well polypropylene plates with a 16-point, two-fold dilution dose curve of each compound in a column, in duplicates. Column 1-2 and 23-24 were left empty for controls. Daughter retest plates were prepared from stock retest plate by diluting 66.6 fold in DMEM in 384-well deep-deep well plates (4.5 μl transfer into 300 μl). Cells were seeded at a density of 6000 per well in 40 μl, and 20 μl was added from a daughter retest plate. The plates were incubated for two days at 37° C. with 5% CO2.
row,Structure (SMILES),Genetic basis of Selectivity
1,COc1cccc2c1C(=O)c1c(O)c3c(c(O)c1C2=O)C[C@@](O)(C(=O)CO)C[C@@H]3O[C@H]1C[C@H](N)[C@H](O)[C@H](C)O1 [Doxorubicin],TERT/RB
2,CC[C@@]1(O)C(=O)OCc2c1cc1n(c2=O)Cc2cc3ccccc3nc2-1 [Camptothecin],RAS^V12/PP2A/RB
3,CS[C@H]1SC[C@H]2C(=O)N(C)[C@@H](C(C)C)C(=O)OC[C@@H](NC(=O)c3cnc4ccccc4n3)C(=O)N[C@@H](C)C(=O)N(C)[C@@H]1C(=O)N(C)[C@@H](C(C)C)C(=O)OC[C@@H](NC(=O)c1cnc3ccccc3n1)C(=O)N[C@@H](C)C(=O)N2C [Echinomycin],non-specific
4,Cc1c2ccccc2c(CSC(=N)N)c2ccccc12.Cl [NSC146109],non-specitic
5,COc1cccc2c1C(=O)c1c(O)c3c(c(O)c1C2=O)C[C@@](O)(C(C)=O)C[C@@H]3O[C@H]1C[C@H](N)[C@H](O)[C@H](C)O1 [Daunorubicin],TERT/RB
6,COc1ccc(C[C@H]2C(=O)N[C@@H](C)C(=O)N(C)[C@@H]3C(=O)N(C)[C@@H](Cc4ccc(O)c(c4)Oc4ccc(cc4)[C@@H]3O)C(=O)N[C@H](C)C(=O)N[C@@H](C)C(=O)N2C)cc1 [Bouvardin],non-specific
7,O=C1c2c(O)ccc(O)c2C(=O)c2c(NCCNCCO)ccc(NCCNCCO)c21 [Mitoxantrone],TERT/RB
8,NC(=O)c1cn([C@@H]2O[C@H](CO)[C@@H](O)[C@H]2O)c2ncnc(N)c12 [Sangivamycin],non-specific

# Reference: patent US20050032124A1, “Identification of genotype-selective agents for treating Huntington's disease” (priority 2003, published 2005)
